# Test results: PubChem BioAssay AID1347075 (National Center for Advancing Translational Sciences (NCATS), 2019)
# Screen size: about 400,000 compounds; about 5,500 (1.4%) were called active. Inconclusive means that the source gave no clear call. Such entries were picked first, then a sample of the others. Calls follow the shape of the dose curve; as a rule, active = well fitted cell-killing curve with a large enough effect; inconclusive = small, poorly fitted or top-dose-only effect, or effect the other way; inactive = flat fitted curve, though single readings scatter. Potencies beside an inconclusive call are fits to weak or partial responses and may not hold up.
# Assay: qHTS assay for MDR1-selective chemotherapeutics: Primary screen using the parental adenocarcinoma cell KB-3-1; also: nearly all actives have a fitted effect of over 60% in size
# Details: KB-3-1 viability, CellTiter-Glo ATP luminescence, 72 h; series mostly up to 46.1 µM
# Outline: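 Using CellTiter-Glo luminescence, growth of non-resistant KB-3-1 adenocarcinoma cells is assessed 72 h after pin-tool compound addition at 37 °C. Normalized responses across the concentration series yield fitted curves.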
# Potency is read from the fitted curve at half-maximal effect.
row,Structure (SMILES),Potency
1,CC1C/C(=N\NC(N)=S)c2cc(Cl)ccc2S1 (configuration not stated),inactive
2,CC(=O)Oc1cccc(C(=O)Nc2ccc(NC(=O)c3cccs3)cc2)c1,inactive
3,C=CCC[C@@H](Cc1ccc(F)cc1)C(=O)OC[C@@H](Cc1c[nH]c2ccccc12)NC(=O)[C@@H](CC=C)CC(=O)N[C@H](CO)Cc1ccccc1,"inconclusive: 14.6 µM [cytotoxic, partial curve, poor fit]"
4,O=C(c1nnsc1S(=O)c1ccc(Cl)cc1)N1CCOCC1 (configuration not stated),"inconclusive: 23.1 µM [cytotoxic, single point]"
5,CCC(C)N(NC(C)=O)c1nc(Cl)nc(NC(C)C)n1 (configuration not stated),"inconclusive: 32.6 µM [rising, single point]"
6,Cc1ccc(C(=O)N/C(=C/c2ccc(-c3cccc([N+](=O)[O-])c3)o2)C(=O)NC(C)C)cc1,inactive
7,O=[N+]([O-])c1ccccc1S(=O)c1ccccc1[N+](=O)[O-],"inconclusive: 18.4 µM [cytotoxic, single point]"
8,O=C(Nc1cccc(F)c1)C1CCCN(S(=O)(=O)c2cccc3cccnc23)C1 (configuration not stated),"inconclusive: 29.1 µM [cytotoxic, single point]"
9,CN(C)c1ccc(/C=N/N(Cc2ccccc2)c2ccccc2)cc1,"inconclusive: 29.1 µM [rising, partial curve, poor fit]"
10,Cc1ccc(-c2nn(-c3cc(N4CCNCC4)ccc3[N+](=O)[O-])c(=O)c3ccccc23)cc1,"inconclusive: 29.1 µM [cytotoxic, single point]"
11,O=C(Nc1cccc(Cl)c1)C1CCCN(S(=O)(=O)c2ccc(F)cc2)C1 (configuration not stated),"inconclusive: 29.1 µM [cytotoxic, single point]"
12,NC(=S)N/N=C/c1coc2c(ccc3ccccc32)c1=O,active: 6.51 µM
13,O=C(Cn1cncn1)N/N=C/c1cc([N+](=O)[O-])ccc1O,inactive
14,O=C(C#Cc1ccccc1)Nc1cccc(F)c1,active: 23.1 µM
15,COc1cc(CNn2nnnc2N)ccc1OCc1c(Cl)cccc1Cl,active: 16.4 µM
16,CC(C)CNS(=O)(=O)c1ccc(CCC(=O)Nc2cc(Cl)ccc2Oc2ccccc2)cc1,"inconclusive: 25.9 µM [cytotoxic, partial curve, poor fit]"
17,CC(C)N(CCCNC(=O)C1CCC(CNS(=O)(=O)c2ccccc2)CC1)Cc1ccccc1 (configuration not stated),inactive
18,O=C(NNC(=O)C1CC1)c1ccccc1[N+](=O)[O-],inactive
19,COc1ccc(N2CCN(c3ncnc4c3cnn4-c3ccc(F)cc3)CC2)cc1,inactive
20,CCOC(=O)c1c(C)oc2nc(C)nc(NCCc3ccc(OCC)c(OCC)c3)c12,inactive
21,Cc1ccc(C(=O)/C=C/Nc2cccc([N+](=O)[O-])c2)o1,"inconclusive: 23.1 µM [cytotoxic, single point]"
22,CCc1ccc(OCCOCC(O)CN2CCN(Cc3ccc(Cl)cc3)CC2)cc1 (configuration not stated),"inconclusive: 20.6 µM [cytotoxic, single point]"
23,CC1C=CCC2C(=O)N(c3ccccc3OC(=O)c3cccs3)C(=O)C12 (configuration not stated),"inconclusive: 29.1 µM [rising, single point]"

row,Structure (SMILES),Potency
1,COc1ccc(C)cc1Nc1cc(C)nc2ncnn12,"inconclusive: 2.91 µM [cytotoxic, full curve]"
2,CSc1nsc(SCC(=O)Nc2ccccc2C(=O)O)n1,"inconclusive: 29.1 µM [cytotoxic, single point]"
3,O=S(=O)(c1ccccc1)[C@@]1(c2ccc(Br)cc2)C[C@@H]2ON=C(c3ccccc3)[C@@H]2C1,"inconclusive: 18.4 µM [cytotoxic, single point]"
4,NC(Cc1ccc(Cl)cc1)c1csc(Nc2cc(Oc3ccccc3)ncn2)n1 (configuration not stated),"inconclusive: 29.1 µM [cytotoxic, single point]"
5,CC(C)Cn1c(-c2nn(C)cc2Cl)n[nH]c1=S,inactive
6,CCOC(=O)C1CCN(Cc2cccc(OCc3ccccc3)c2)CC1,inactive
7,Cc1ccc(NC(=O)c2ccc(OCc3c(C)noc3C)cc2)c(C)c1,"inconclusive: 25.9 µM [cytotoxic, partial curve, poor fit]"
8,CCN1C(=O)[C@H]2[C@@H](c3ccc(C)cc3)N3C(=O)N(c4cccc(Cl)c4)C(=O)[C@@]3(Cc3ccc(Cl)cc3)[C@H]2C1=O,"inconclusive: 16.4 µM [cytotoxic, single point]"
9,CCN1C[C@@H]2[C@@H]3C(=O)N(Cc4ccccc4)C(=O)[C@@H]3[C@](Cc3ccccc3)(C1=O)N2C(=O)c1ccc(C(C)(C)C)cc1,"inconclusive: 29.1 µM [cytotoxic, single point]"
10,Cc1c(C(=O)OC(C)C)[nH]c2c1C(=O)CCC2,"inconclusive: 0.231 µM [cytotoxic, full curve]"
11,Cc1cc(C)cc(-n2c(SCC(=O)N3CCC(C)CC3)nc3c([nH]c4ccccc43)c2=O)c1,inactive
12,CNC(=O)c1cc(C(=O)c2ccc(F)cc2Cl)c[nH]1,inactive
13,O=C(CSc1nc2c([nH]c3ccccc32)c(=O)n1-c1ccc(F)cc1)N1CCc2ccccc21,inactive
14,CC(=O)c1c(C)[nH]c(C(=O)CSc2ccc(F)cc2)c1C,"inconclusive: 2.06 µM [cytotoxic, partial curve, poor fit]"
15,COc1ccc(CN(C(=O)c2ccc3c(c2)OCCO3)C(C(=O)NC2CCCCC2)c2ccc3ncccc3c2)cc1 (configuration not stated),inactive
16,Cc1cc(=O)oc2cc(OCCc3ccccc3)ccc12,active: 20.6 µM
17,COc1ccc(NS(=O)(=O)c2ccc(NC(=O)c3ccc(N(C)S(C)(=O)=O)cc3)cc2)cc1,"inconclusive: 23.1 µM [cytotoxic, single point]"
18,NC(Cc1ccc(C(F)(F)F)cc1)c1csc(Nc2cc(Oc3ccccc3)ncn2)n1 (configuration not stated),"inconclusive: 29.1 µM [cytotoxic, single point]"
19,CCCCOc1ccc(C(=O)NN2C(=O)NC3(CCCCC3)C2=O)cc1OC,inactive
20,CCOC(=O)[C@]12Cc3c(cc(OC)c(OC)c3OC)[C@H]1N(C1CCCCC1)C(=O)c1cc(OC)ccc12,active: 3.26 µM
21,NNC(=O)C1=NOC2COC3(CCN(c4ncccn4)CC3)OCC12 (configuration not stated),inactive
22,CCOc1cc(C(=O)NC(CC(=O)O)c2ccc(OC3CCCC3)cc2)cc(OCC)c1OCC (configuration not stated),inactive
23,COc1ccc(NC(=O)C2CCC(N3C(=O)C4CCCCC4C3=O)CC2)cc1 (configuration not stated),inactive

# A draw from above in order of number of heavy atoms, rising:
row,Structure (SMILES),Potency
2,CSc1nsc(SCC(=O)Nc2ccccc2C(=O)O)n1,"inconclusive: 29.1 µM [cytotoxic, single point]"
10,Cc1ccc(-c2nn(-c3cc(N4CCNCC4)ccc3[N+](=O)[O-])c(=O)c3ccccc23)cc1,"inconclusive: 29.1 µM [cytotoxic, single point]"
20,CCOC(=O)[C@]12Cc3c(cc(OC)c(OC)c3OC)[C@H]1N(C1CCCCC1)C(=O)c1cc(OC)ccc12,active: 3.26 µM

# More entries.

row,Structure (SMILES),Potency
1,COc1cccc(C2c3[nH]c4ccccc4c3CCN2CCCn2cccn2)c1 (configuration not stated),inactive
2,Cc1ccc(C)c(Cn2c(O)c(N=NC(=S)Nc3ccccc3F)c3ccccc32)c1,"inconclusive: 29.1 µM [cytotoxic, partial curve, poor fit]"
3,CCOCCCNC(=O)CN1C(=O)/C(=C/c2ccccc2C)Sc2ccccc21,"inconclusive: 1.84 µM [rising, partial curve]"
4,CCOc1ccc(S(=O)(=O)NCCC(=O)N2CC=C(c3ccccc3)CC2)cc1,active: 13 µM
5,COc1ccc(-[n+]2c(C)cc(/C=C3\Sc4ccccc4N3C)cc2C)cc1,"inconclusive: 0.326 µM [cytotoxic, full curve, poor fit]"
6,CCOC(=O)c1[nH]c(C)c(C(=O)OCC(=O)Nc2sc3c(c2C#N)CCCCC3)c1C,"inconclusive: 29.1 µM [cytotoxic, single point]"
7,CCc1ccc(NC(=O)CC2C(=O)NCCN2C(=O)c2ccc(F)cc2)cc1 (configuration not stated),inactive
8,CCOc1c(OC)cccc1C1CC(=O)Nc2cc3c(cc21)OCCO3 (configuration not stated),"inconclusive: 14.6 µM [cytotoxic, partial curve, poor fit]"
9,Fc1ccc(COc2cccc(CNCc3ccncc3)c2)cc1,"inconclusive: 20.6 µM [cytotoxic, single point]"
10,O=c1c2ccc(Cl)cc2nc(-c2cccc(C(F)(F)F)c2)n1O,"inconclusive: 7.31 µM [cytotoxic, partial curve, poor fit]"
11,CSc1ccc(C2C(C(=O)Nc3ccccc3)=C(C)Nc3nc4ccccc4n32)cc1 (configuration not stated),"inconclusive: 29.1 µM [cytotoxic, single point]"
12,CCc1cc(Cn2nc(-c3ccccc3)cc2C(=O)NCc2cccs2)on1,"inconclusive: 29.1 µM [cytotoxic, single point]"
13,COc1cc(C(=O)NCC(=O)N/N=C\C(C)=C/c2ccccc2)cc(OC)c1OC,"inconclusive: 29.1 µM [cytotoxic, single point]"
14,CCOc1ccc(S(=O)(=O)NCCC(=O)NCC(C)(C)N2CCOCC2)cc1,"inconclusive: 0.411 µM [rising, full curve]"
15,Cc1nc(-[n+]2nc(-c3ccncc3)nn2-c2ccccc2)sc1C,"inconclusive: 23.1 µM [cytotoxic, single point]"
16,S=C(NCc1ccco1)Nc1cc(Cl)c(Cl)cc1Cl,"inconclusive: 23.1 µM [cytotoxic, partial curve, poor fit]"
17,CCN1C(=O)c2cccc3c(S(=O)(=O)Nc4ccccc4OC)ccc1c23,"inconclusive: 20.6 µM [cytotoxic, single point]"
18,COc1cc2c(cc1NC(=O)Nc1ccccc1)oc1ccccc12,"inconclusive: 29.1 µM [cytotoxic, single point]"
19,COc1ccc(C(=O)NCc2ccc(N3CCN(C(=O)OC(C)(C)C)CC3)cc2)cc1,"inconclusive: 18.4 µM [cytotoxic, single point]"
20,O=C(Nc1nccs1)c1sc2ccccc2c1Cl,"inconclusive: 20.6 µM [cytotoxic, single point]"
21,COc1ccc(NS(=O)(=O)c2cccc(C(=O)NNC(=O)c3ccccc3O)c2)cc1,"inconclusive: 29.1 µM [cytotoxic, single point]"
